No constants are given. Whether binding was seen depends on the method and setting. Some entries that bind do so weakly or less than the wild type. Blank lines part the entries; values can stand above or below the molecule they belong to.
What was measured:
[1] = biological target: polyketide synthase 16 (Pks16) (Dictyostelium discoideum (endogenous in AX2-214 cells)) (UniProt Q869W9); assay: cryo-EM structure; shotgun EM of endogenous assemblies in a heterogeneous pool of SEC and mixed-bed IEX fractions of D. discoideum lysate; 50 mM Hepes pH 7.4, 100 mM NaCl, 3 mM MgSO4, 0.1 mM EGTA, 1 mM DTT, 2% glycerol; 200 kV Glacios; proteins identified by MS of the same sample; AlphaFold 3 models fitted into the maps
[2] = biological target: dihydrolipoyllysine-residue succinyltransferase (Odo2) of the mitochondrial 2-oxoglutarate dehydrogenase complex (Dictyostelium discoideum (endogenous in AX2-214 cells)) (UniProt Q869Y7); assay: as above

By UniProt entry, the sequences of proteins in these tests, tags left out.
UniProt Q869W9: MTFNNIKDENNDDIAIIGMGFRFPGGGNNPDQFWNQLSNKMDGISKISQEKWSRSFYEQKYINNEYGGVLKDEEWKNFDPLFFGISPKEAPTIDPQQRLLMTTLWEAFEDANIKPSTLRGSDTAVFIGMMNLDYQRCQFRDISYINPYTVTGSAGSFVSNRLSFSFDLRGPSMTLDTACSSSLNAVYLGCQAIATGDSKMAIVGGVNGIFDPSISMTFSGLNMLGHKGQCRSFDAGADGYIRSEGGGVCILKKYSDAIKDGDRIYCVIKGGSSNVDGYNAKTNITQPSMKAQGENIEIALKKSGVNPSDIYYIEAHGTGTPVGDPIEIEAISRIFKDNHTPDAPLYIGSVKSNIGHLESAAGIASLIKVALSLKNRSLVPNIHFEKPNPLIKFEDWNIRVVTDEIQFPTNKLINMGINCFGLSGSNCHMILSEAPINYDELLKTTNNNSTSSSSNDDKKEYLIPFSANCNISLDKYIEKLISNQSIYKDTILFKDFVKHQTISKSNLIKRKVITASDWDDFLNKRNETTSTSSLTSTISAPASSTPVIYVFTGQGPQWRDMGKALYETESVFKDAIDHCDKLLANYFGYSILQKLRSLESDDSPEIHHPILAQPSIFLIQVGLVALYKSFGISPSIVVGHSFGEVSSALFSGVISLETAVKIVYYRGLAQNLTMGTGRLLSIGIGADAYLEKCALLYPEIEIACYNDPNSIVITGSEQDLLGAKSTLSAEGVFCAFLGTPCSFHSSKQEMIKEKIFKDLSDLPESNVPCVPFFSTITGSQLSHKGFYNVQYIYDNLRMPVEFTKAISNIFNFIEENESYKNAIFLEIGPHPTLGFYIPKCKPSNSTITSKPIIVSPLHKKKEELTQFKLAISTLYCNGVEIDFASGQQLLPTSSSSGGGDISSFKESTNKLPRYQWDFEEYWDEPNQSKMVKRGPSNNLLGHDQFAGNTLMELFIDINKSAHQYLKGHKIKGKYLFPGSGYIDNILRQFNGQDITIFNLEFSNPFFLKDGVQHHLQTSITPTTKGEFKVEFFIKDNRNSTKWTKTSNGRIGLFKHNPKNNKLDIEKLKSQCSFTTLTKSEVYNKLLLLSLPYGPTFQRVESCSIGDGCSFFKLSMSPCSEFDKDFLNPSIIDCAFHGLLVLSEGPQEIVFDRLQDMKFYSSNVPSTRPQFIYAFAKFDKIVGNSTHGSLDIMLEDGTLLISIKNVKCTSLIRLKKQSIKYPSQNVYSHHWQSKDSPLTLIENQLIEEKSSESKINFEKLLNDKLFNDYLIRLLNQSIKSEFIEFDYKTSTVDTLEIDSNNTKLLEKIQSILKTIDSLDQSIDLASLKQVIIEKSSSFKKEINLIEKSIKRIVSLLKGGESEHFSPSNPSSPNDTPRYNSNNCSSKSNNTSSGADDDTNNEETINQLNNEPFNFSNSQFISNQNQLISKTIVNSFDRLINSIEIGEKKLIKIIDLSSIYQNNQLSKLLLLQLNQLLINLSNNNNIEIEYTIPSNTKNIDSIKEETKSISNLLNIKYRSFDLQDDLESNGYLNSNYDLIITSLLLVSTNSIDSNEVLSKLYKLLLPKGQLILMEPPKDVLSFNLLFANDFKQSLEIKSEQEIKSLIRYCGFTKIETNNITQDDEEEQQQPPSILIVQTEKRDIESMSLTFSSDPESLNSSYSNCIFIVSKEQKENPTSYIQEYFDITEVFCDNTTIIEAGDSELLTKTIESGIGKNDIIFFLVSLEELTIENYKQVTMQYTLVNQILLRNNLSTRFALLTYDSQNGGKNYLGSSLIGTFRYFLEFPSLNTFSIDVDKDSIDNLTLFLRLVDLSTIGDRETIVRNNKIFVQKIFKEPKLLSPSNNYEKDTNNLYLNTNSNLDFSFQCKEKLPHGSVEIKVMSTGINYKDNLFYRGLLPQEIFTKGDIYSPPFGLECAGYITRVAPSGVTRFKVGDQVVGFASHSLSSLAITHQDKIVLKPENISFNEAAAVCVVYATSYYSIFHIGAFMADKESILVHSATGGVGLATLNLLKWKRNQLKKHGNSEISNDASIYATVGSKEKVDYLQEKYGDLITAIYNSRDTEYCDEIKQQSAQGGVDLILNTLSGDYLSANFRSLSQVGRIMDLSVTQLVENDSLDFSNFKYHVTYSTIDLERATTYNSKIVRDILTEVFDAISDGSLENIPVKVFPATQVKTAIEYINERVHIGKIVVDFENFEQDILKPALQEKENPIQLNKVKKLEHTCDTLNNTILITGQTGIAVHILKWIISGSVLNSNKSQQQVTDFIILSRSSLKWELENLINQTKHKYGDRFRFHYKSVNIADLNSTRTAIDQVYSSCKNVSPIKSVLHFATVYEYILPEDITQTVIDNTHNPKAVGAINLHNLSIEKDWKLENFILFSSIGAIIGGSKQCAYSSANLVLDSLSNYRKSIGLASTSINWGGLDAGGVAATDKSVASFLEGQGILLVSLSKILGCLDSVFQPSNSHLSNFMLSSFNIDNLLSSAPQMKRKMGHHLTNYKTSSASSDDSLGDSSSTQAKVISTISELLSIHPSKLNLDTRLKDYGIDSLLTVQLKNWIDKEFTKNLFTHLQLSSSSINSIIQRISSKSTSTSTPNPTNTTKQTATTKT

- binding [1]: binds
Molecule: polyketide synthase 16 (Pks16) (from UniProt Q869W9 1-2603) (enzyme)

- binding [2]: binds
B1: dihydrolipoyllysine-residue succinyltransferase (Odo2) of the mitochondrial 2-oxoglutarate dehydrogenase complex (enzyme, UniProt Q869Y7 48-439)
chain: FTSLFNNNNVNNTNIKYQRFYSSANDVVIKVPSMGDSISEGTIVAWTKNVGDSVRVDEVVCSIETDKVTIDINAPVSGTIVELFAKEGENVTVGNDLYKIAKGEVAAAPKVEAPKAAEAPKAAAPTPAPKAAETPKAAPAPKSEAPTPAPKSTTTTTSTGPSETRVKMTRIRQRTAQRLKDSQNTAAMLTTFNELDMSALMNMRKTYKDEFEKKHGVKFGFMSAFVKASTIALKEQPIVNASVEENDIVYHNNVNINVAVSAPRGLVVPVIRNCENLSFADIEKEIGRLSGLARNDALAIEDSIGGTFTISNGGVFGSMFGTPIINPPQSAILGMHAIKDRPYVVNGQVVVRPIMYLALTYDHRIIDGREAVTFLKKIKDVLENPERILLEL
